NP40-soluble protein abundance data for 14 targets are collected here from the supplement of paper PMC6411743.

Protein sequences, listed by entry. Tags and fused reporters are not part of them. Lines headed by an entry give the natural chain unless they say otherwise; changes in a name come on top.
UniProt Q13546: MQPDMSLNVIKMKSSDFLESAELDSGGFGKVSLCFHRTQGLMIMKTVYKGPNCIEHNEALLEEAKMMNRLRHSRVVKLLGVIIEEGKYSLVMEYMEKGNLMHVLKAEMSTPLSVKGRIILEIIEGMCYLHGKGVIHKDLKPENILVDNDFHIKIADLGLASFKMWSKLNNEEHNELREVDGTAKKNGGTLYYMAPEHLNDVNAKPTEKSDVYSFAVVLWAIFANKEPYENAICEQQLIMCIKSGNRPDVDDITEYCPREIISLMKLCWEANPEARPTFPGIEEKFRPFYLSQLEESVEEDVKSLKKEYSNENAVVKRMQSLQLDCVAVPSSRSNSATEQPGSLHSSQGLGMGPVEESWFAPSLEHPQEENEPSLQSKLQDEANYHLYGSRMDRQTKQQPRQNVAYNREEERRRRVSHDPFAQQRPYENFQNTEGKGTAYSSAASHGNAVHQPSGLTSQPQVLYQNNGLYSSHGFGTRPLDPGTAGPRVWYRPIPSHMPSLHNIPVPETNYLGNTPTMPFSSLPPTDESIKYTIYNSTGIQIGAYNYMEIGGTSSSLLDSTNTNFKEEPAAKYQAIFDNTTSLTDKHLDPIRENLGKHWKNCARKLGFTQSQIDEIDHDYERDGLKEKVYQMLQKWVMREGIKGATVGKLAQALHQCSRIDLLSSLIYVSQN
UniProt Q14643, whole entry: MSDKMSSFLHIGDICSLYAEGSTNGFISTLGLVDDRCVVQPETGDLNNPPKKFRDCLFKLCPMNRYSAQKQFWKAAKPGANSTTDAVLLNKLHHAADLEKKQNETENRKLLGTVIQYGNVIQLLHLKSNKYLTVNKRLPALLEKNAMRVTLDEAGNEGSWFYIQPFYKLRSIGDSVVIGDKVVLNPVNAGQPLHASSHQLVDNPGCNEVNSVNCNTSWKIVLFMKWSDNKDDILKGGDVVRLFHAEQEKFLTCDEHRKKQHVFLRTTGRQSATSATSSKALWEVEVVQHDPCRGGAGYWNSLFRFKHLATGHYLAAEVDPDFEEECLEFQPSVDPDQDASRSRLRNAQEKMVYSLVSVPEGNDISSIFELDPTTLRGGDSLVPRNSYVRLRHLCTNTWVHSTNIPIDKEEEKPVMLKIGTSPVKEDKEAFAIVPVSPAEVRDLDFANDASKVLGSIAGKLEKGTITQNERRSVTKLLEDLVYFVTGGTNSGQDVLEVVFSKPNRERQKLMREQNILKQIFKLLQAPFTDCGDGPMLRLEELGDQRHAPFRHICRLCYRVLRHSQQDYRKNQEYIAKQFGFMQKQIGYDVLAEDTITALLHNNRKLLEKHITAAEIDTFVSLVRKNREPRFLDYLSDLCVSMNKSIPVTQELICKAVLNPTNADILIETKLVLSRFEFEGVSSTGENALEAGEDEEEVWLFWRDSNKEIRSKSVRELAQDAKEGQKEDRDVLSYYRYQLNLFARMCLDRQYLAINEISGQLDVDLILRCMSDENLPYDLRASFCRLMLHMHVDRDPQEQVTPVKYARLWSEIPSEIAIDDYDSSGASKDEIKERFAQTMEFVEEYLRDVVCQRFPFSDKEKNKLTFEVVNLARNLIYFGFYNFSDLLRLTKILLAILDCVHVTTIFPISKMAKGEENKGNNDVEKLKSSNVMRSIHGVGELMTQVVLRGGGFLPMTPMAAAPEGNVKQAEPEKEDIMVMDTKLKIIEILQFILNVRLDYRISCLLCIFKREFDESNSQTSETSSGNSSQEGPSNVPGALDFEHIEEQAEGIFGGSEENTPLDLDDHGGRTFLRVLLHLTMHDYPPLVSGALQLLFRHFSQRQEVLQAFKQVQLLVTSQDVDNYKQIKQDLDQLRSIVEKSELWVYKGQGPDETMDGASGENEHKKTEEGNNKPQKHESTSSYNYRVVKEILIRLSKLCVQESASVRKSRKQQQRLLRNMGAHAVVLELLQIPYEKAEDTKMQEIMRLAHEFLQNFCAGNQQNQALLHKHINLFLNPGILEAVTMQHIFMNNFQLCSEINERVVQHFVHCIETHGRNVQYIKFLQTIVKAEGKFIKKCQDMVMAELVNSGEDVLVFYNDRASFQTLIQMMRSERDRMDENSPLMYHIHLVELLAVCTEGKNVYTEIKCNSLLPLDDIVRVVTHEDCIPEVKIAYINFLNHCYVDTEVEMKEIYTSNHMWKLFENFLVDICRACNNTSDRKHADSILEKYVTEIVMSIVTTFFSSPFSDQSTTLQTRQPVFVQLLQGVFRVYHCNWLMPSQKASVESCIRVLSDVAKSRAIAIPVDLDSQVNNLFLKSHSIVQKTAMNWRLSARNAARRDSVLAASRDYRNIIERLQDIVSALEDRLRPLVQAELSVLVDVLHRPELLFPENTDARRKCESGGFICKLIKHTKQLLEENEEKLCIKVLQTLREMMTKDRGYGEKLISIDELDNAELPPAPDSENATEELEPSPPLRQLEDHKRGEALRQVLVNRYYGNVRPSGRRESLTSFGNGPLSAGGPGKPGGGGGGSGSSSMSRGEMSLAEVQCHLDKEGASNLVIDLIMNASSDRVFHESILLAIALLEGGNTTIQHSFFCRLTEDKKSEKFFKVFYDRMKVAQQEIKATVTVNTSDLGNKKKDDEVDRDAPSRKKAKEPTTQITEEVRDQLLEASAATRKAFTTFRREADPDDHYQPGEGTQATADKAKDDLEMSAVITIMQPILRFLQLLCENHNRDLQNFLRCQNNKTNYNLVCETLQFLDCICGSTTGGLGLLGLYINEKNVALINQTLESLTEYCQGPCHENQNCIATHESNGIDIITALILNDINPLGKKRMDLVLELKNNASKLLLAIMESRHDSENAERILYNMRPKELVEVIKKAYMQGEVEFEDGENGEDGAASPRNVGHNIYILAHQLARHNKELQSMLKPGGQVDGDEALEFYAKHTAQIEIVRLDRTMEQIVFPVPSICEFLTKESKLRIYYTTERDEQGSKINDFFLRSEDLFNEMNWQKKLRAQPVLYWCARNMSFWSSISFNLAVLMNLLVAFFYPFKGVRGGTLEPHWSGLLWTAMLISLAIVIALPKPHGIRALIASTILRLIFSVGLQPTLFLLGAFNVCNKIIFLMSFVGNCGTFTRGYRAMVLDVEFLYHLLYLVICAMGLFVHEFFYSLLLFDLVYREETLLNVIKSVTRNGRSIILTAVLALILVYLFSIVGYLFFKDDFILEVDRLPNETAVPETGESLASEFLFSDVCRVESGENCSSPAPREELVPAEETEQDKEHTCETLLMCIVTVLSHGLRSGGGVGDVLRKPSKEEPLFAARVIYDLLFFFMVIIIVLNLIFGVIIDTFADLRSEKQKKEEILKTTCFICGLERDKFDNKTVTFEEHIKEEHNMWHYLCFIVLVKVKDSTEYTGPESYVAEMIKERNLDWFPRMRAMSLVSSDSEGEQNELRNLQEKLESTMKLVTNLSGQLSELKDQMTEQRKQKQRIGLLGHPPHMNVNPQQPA
UniProt Q01970, whole entry: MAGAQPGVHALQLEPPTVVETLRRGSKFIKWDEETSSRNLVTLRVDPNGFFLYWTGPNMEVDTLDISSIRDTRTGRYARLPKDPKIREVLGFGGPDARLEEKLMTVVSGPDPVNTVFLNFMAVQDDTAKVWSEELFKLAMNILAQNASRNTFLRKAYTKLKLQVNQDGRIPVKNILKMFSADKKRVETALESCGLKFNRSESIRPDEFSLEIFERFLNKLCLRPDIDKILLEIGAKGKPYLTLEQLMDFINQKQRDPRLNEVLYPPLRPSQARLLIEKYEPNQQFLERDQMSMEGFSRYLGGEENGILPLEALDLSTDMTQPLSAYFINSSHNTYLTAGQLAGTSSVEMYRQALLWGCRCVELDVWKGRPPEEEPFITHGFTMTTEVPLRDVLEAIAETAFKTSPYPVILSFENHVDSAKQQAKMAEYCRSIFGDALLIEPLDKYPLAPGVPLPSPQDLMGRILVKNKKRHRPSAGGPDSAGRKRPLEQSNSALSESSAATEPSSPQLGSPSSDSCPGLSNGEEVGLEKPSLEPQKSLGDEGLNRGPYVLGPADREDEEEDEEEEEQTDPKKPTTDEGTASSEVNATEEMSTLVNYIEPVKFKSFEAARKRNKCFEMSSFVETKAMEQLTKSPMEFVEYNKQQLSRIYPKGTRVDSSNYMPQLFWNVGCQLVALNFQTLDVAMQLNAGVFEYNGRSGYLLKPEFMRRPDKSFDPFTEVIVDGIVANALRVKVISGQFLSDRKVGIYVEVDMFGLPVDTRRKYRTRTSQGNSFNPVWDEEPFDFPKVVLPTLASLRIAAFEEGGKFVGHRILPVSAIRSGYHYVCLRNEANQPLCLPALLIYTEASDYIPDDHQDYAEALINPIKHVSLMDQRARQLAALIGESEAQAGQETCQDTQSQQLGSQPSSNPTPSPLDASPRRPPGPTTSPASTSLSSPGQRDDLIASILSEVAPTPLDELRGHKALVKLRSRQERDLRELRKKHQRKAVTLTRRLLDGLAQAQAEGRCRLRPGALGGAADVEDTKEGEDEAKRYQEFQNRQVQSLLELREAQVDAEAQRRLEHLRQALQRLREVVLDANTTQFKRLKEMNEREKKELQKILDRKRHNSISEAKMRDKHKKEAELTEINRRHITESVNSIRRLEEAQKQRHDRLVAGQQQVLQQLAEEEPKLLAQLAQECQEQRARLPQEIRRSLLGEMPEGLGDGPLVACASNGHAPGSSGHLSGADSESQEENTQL
UniProt Q13428: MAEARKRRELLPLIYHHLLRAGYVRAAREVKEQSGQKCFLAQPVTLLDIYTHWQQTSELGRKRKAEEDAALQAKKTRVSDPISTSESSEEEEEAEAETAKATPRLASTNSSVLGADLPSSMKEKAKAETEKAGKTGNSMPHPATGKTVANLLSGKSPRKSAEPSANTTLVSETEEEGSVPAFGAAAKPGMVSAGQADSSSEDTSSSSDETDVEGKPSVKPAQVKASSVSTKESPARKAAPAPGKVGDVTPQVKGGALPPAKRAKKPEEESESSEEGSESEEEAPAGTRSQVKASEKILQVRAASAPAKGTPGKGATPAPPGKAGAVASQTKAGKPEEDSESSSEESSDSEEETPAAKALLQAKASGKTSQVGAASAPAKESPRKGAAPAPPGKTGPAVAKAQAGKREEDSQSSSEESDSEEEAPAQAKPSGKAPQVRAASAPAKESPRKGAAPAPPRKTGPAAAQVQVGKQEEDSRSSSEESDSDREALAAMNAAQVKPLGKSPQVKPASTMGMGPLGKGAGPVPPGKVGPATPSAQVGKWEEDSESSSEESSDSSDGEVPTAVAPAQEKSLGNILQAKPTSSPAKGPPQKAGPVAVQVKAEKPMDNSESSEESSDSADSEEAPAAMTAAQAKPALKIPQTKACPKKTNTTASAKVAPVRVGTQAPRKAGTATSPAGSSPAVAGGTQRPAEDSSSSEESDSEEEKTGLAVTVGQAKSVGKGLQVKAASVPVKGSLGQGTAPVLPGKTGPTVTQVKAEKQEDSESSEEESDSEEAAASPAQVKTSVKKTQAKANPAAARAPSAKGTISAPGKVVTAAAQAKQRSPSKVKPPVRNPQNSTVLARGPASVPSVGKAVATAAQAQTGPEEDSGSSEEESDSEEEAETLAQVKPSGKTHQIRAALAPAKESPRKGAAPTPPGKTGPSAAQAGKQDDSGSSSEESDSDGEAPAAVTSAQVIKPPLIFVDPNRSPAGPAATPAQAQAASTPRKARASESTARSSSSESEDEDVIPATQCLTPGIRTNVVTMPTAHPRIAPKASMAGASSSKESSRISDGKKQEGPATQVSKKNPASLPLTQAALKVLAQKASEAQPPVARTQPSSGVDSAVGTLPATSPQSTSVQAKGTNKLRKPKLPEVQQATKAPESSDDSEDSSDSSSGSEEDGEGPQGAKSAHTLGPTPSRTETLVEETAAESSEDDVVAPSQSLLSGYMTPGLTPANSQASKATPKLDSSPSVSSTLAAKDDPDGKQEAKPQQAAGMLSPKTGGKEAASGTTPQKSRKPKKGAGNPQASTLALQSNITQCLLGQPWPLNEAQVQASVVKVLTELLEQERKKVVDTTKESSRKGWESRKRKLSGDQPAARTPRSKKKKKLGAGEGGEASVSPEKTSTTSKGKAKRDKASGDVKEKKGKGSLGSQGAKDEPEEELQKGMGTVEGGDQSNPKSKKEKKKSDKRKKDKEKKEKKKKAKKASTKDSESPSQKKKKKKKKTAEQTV
UniProt Q13686: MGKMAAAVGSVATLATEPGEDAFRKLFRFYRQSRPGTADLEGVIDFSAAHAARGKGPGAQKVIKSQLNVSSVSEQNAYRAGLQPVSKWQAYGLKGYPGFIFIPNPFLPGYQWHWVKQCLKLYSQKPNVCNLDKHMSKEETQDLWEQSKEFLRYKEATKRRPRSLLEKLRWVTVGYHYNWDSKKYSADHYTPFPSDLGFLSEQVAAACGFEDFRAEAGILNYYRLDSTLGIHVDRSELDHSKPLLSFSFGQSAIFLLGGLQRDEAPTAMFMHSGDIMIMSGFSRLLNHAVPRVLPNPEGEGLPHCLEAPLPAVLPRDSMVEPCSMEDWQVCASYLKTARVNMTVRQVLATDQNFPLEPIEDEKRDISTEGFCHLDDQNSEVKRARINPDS

± gives the standard deviation of the averaged measurements. This is one part of the list.

Compound in the experiment: Nc1nc2c(ncn2[C@@H]2O[C@H](COP(=O)(O)OP(=O)(O)OP(=O)(O)O)[C@@H](O)[C@H]2O)c(=O)[nH]1 [guanosine triphosphate]
The experiment is described as follows: NP40-soluble protein abundance relative to vehicle (solubility fold change) (ratio); higher = more soluble protein in presence of GTP. The method in brief:
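In three independent experiments, Jurkat crude lysate made by Dounce homogenisation was treated for 10 min at room temperature and then 3 min at 37 °C with eight concentrations ranging from 0.1 to 10 mM. It was then solubilised with 0.8% NP40 plus benzonase for 60 min at 4 °C and ultracentrifuged. The supernatant was TMT-labelled for LC-MS/MS, and each value is the fold change against the detergent-processed vehicle for the same replicate, using vsn-normalised intensities.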

Turning to RIPK1 (UniProt Q13546), the NP40-soluble protein abundance was 1.05 ± 0.06 (concentration: 0.1mM); 1.01 ± 0.059 (concentration: 0.5mM); 0.96 ± 0.049 (concentration: 1mM); 0.93 ± 0.079 (concentration: 2mM); 0.948 ± 0.033 (concentration: 4mM); 0.924 ± 0.067 (concentration: 6mM). Besides, the NP40-soluble protein abundance runs as follows: (concentration: 8mM) 0.914 ± 0.075; (concentration: 10mM) 0.884 ± 0.067.

In the case of UniProt Q14643 and related entries, the NP40-soluble protein abundance is, setting by setting: (concentration: 0.1mM) 1.03 ± 0.031; (concentration: 0.5mM) 1.06 ± 0.069; (concentration: 1mM) 1.06 ± 0.011; (concentration: 2mM) 1.05 ± 0.11; (concentration: 4mM) 1.03 ± 0.074; (concentration: 6mM) 1.05 ± 0.054. Besides, the NP40-soluble protein abundance is, setting by setting: (concentration: 8mM) 1.03 ± 0.093; (concentration: 10mM) 1.01 ± 0.1.

ERCC8 (UniProt Q13216): the NP40-soluble protein abundance was 1.11 ± 0.23 (concentration: 0.1mM); 0.967 ± 0.14 (concentration: 0.5mM); 1.03 ± 0.095 (concentration: 1mM); 1.12 ± 0.21 (concentration: 2mM); 1.04 ± 0.061 (concentration: 4mM); 0.988 ± 0.035 (concentration: 6mM). Moreover, the NP40-soluble protein abundance stood at 1 ± 0.048 (concentration: 8mM) and 0.976 ± 0.034 (concentration: 10mM).

Turning to “UniProt Q02078-2|Q02078-6|H0YNI2 and related entries”, the NP40-soluble protein abundance was determined as 0.977 ± 0.026 (concentration: 0.1mM); 1.09 ± 0.058 (concentration: 0.5mM); 1.04 ± 0.12 (concentration: 1mM); 0.967 ± 0.011 (concentration: 2mM); 1.08 ± 0.25 (concentration: 4mM); 1.07 ± 0.22 (concentration: 6mM). The NP40-soluble protein abundance by setting is: (concentration: 8mM) 0.959 ± 0.033; (concentration: 10mM) 1.04 ± 0.069.

As for UniProt Q01970 and related entries, the NP40-soluble protein abundance by setting is: (concentration: 0.1mM) 1.04 ± 0.011; (concentration: 0.5mM) 1.05 ± 0.035; (concentration: 1mM) 1.01 ± 0.066; (concentration: 2mM) 1.03 ± 0.031; (concentration: 4mM) 1.02 ± 0.026; (concentration: 6mM) 0.997 ± 0.035. For the same target, the NP40-soluble protein abundance is, setting by setting: (concentration: 8mM) 0.981 ± 0.052; (concentration: 10mM) 0.981 ± 0.043.

For the target UniProt Q13885, the NP40-soluble protein abundance stood at 0.962 ± 0.19 (concentration: 0.1mM); 0.962 ± 0.13 (concentration: 0.5mM); 0.98 ± 0.16 (concentration: 1mM); 0.966 ± 0.17 (concentration: 2mM); 0.993 ± 0.24 (concentration: 4mM); 0.916 ± 0.16 (concentration: 6mM). Besides, the NP40-soluble protein abundance was found to be 0.985 ± 0.19 (concentration: 8mM) and 0.959 ± 0.2 (concentration: 10mM).

As to UniProt Q13428 and related entries, the NP40-soluble protein abundance (concentration: 0.1mM) was 0.975 ± 0.096; the NP40-soluble protein abundance (concentration: 0.5mM) was determined as 1.01 ± 0.085; the NP40-soluble protein abundance (concentration: 1mM) is 1.09 ± 0.12; the NP40-soluble protein abundance (concentration: 2mM) stood at 1.09 ± 0.15; the NP40-soluble protein abundance (concentration: 4mM) was 1.11 ± 0.16; the NP40-soluble protein abundance (concentration: 6mM) is 1.13 ± 0.14. Further, the NP40-soluble protein abundance runs as follows: (concentration: 8mM) 1.17 ± 0.17; (concentration: 10mM) 1.23 ± 0.23.

In the case of HNRNPA0 (UniProt Q13151), the NP40-soluble protein abundance (concentration: 0.1mM) worked out at 0.975 ± 0.038; the NP40-soluble protein abundance (concentration: 0.5mM) was determined as 1 ± 0.024; the NP40-soluble protein abundance (concentration: 1mM) amounted to 1 ± 0.038; the NP40-soluble protein abundance (concentration: 2mM) was 0.989 ± 0.05; the NP40-soluble protein abundance (concentration: 4mM) was determined as 0.967 ± 0.035; the NP40-soluble protein abundance (concentration: 6mM) came out at 1 ± 0.046. Further, the NP40-soluble protein abundance was determined as 1.01 ± 0.052 (concentration: 8mM) and 0.986 ± 0.058 (concentration: 10mM).

Regarding UniProt Q12888 and related entries, the NP40-soluble protein abundance is, setting by setting: (concentration: 0.1mM) 0.977 ± 0.053; (concentration: 0.5mM) 0.984 ± 0.063; (concentration: 1mM) 1.01 ± 0.044; (concentration: 2mM) 0.979 ± 0.087; (concentration: 4mM) 0.984 ± 0.055; (concentration: 6mM) 0.997 ± 0.065. Moreover, the NP40-soluble protein abundance turned out to be 1.03 ± 0.061 (concentration: 8mM) and 1 ± 0.066 (concentration: 10mM).

For ALKBH1 (UniProt Q13686), the NP40-soluble protein abundance reads like this: (concentration: 0.1mM) 0.892 ± 0.043; (concentration: 0.5mM) 0.918 ± 0.052; (concentration: 1mM) 0.948 ± 0.1; (concentration: 2mM) 0.927 ± 0.071; (concentration: 4mM) 0.964 ± 0.019; (concentration: 6mM) 0.887 ± 0.044. The NP40-soluble protein abundance is 1.06 ± 0.049 (concentration: 8mM) and 0.796 ± 0.047 (concentration: 10mM).

Consider FKBP5 (UniProt Q13451), for which the NP40-soluble protein abundance by setting is: (concentration: 0.1mM) 0.977 ± 0.017; (concentration: 0.5mM) 0.994 ± 0.022; (concentration: 1mM) 0.982 ± 0.05; (concentration: 2mM) 0.927 ± 0.052; (concentration: 4mM) 0.919 ± 0.052; (concentration: 6mM) 0.925 ± 0.066. The NP40-soluble protein abundance by setting is: (concentration: 8mM) 0.952 ± 0.034; (concentration: 10mM) 0.891 ± 0.046.

DNAJC3 (UniProt Q13217): the NP40-soluble protein abundance runs as follows: (concentration: 0.1mM) 0.969 ± 0.058; (concentration: 0.5mM) 0.9941 ± 0.0026; (concentration: 1mM) 0.9137 ± 0.0073; (concentration: 2mM) 0.916 ± 0.011; (concentration: 4mM) 0.869 ± 0.033; (concentration: 6mM) 0.931 ± 0.031. Further, the NP40-soluble protein abundance stood at 0.897 ± 0.024 (concentration: 8mM) and 0.887 ± 0.047 (concentration: 10mM).

As to UniProt Q13029 and related entries, the NP40-soluble protein abundance amounted to 1.03 ± 0.12 (concentration: 0.1mM); 1.07 ± 0.057 (concentration: 0.5mM); 1.14 ± 0.025 (concentration: 1mM); 1.09 ± 0.15 (concentration: 2mM); 1.04 ± 0.12 (concentration: 4mM); 1.02 ± 0.15 (concentration: 6mM). For the same target, the NP40-soluble protein abundance reads like this: (concentration: 8mM) 1.12 ± 0.093; (concentration: 10mM) 1.15 ± 0.11.

For UniProt Q12824 and related entries, the NP40-soluble protein abundance is, setting by setting: (concentration: 0.1mM) 1.08 ± 0.014; (concentration: 0.5mM) 1.11 ± 0.026; (concentration: 1mM) 1.13 ± 0.042; (concentration: 2mM) 1.14 ± 0.1; (concentration: 4mM) 1.16 ± 0.11; (concentration: 6mM) 1.17 ± 0.11. The NP40-soluble protein abundance by setting is: (concentration: 8mM) 1.17 ± 0.16; (concentration: 10mM) 1.13 ± 0.11.
